Experimental data: PubChem BioAssay AID743454 (Peter MacCallum Cancer Centre, 2014)
The deposit covers about 18,000 reagents; shown is a random part of them. Over the whole deposit, 450 (2.5%) are marked active. 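Single biological run; no consistent viability z cut-off exists, so the class columns, not z-scores, define the calls.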 Entries without a mark were called inactive.

- Aim: 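Search for knock-downs that restore vorinostat killing in resistant colon cancer cells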 (primary screen)
- System: human HCT116-VR colon cancer cells, selected for vorinostat resistance
- Reagent: siRNA pool against human genes, 40 nM siRNA pool
- Time to read-out: vorinostat for 24 h, read-out about 72 h after transfection
- Conditions: vorinostat at 2.5 µM final
- Measurement: 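Two measures, CellTiter-Fluor viability and luminescent caspase 3/7 activity, each as fold change against same-plate mock wells, mean of duplicates, then screen-wide robust z-score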
- Direction: viability robust z-score: higher = more viable cells than screen typical; caspase robust z-score: higher = more caspase 3/7 activity than screen typical
- Call rule: 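Hits are knock-downs in viability class RV1/RV2 or caspase class CA1/CA2, excluding ones that killed cells in the no-drug cell-count arm; hits then retested with single siRNAs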

no.	gene	PubChem SID	viability hit class	caspase hit class	viability robust z-score	caspase robust z-score
1	HTR3E (5-hydroxytryptamine receptor 3E)	SID134313950	no change	no change	0.28	-0.45
2	OPLAH (5-oxoprolinase, ATP-hydrolysing)	SID152151290	no change	no change	0.5	3.94
3	PCDHA6 (protocadherin alpha 6)	SID135622488	no change	no change	-1.33	3.88
4	SERPINB3 (serpin family B member 3)	SID152153851	no change	no change	0.28	0.04
5	SNAP23 (synaptosome associated protein 23)	SID152154302	no change	no change	-0.68	1.36
6	TEX28 (testis expressed 28)	SID134323917	no change	no change	-0.14	-0.09
7	PIP4P1 (phosphatidylinositol-4,5-bisphosphate 4-phosphatase 1)	SID135623141	no change	no change	-0.01	-0.72
8	B3GAT2 (beta-1,3-glucuronyltransferase 2)	SID152152851	no change	no change	-0.28	-0.36
9	MIS18A (MIS18 kinetochore protein A)	SID134324432	no change	no change	0.46	-0.15
10	WDTC1 (WD and tetratricopeptide repeats 1)	SID134320530	no change	no change	-1.04	-0.29
11	PYGO1 (pygopus family PHD finger 1)	SID135622635	no change	no change	-0.59	0.11
12	NEK6 (NIMA related kinase 6)	SID56478779	no change	no change	0.5	-1.06
13	ICAM1 (intercellular adhesion molecule 1)	SID134309932	no change	no change	-1.71	4.52
14	OGN (osteoglycin)	SID152152318	no change	no change	-0.06	-1.02
15	MAP3K20 (mitogen-activated protein kinase kinase kinase 20)	SID152152597	no change	no change	0.57	1.73
16	ACCSL	SID152156338	no change	no change	-0.04	0.91
17	RGS19 (regulator of G protein signaling 19)	SID152148638	no change	no change	0.23	-0.39
18	USP6NL (USP6 N-terminal like)	SID152156506	no change	no change	1.32	0.32
19	DCDC1 (doublecortin domain containing 1)	SID152149977	no change	no change	-0.11	-1.17
20	DCDC1 (doublecortin domain containing 1)	SID152154171	no change	no change	0.69	-0.48
21	AFDN (afadin, adherens junction formation factor)	SID135623906	no change	no change	-0.06	-1.15
22	CABLES2 (Cdk5 and Abl enzyme substrate 2)	SID152153586	no change	no change	-0.59	1.42
23	BTF3 (basic transcription factor 3)	SID152154580	no change	no change	-0.78	1.57
24	ACOX3 (acyl-CoA oxidase 3, pristanoyl)	SID152154306	no change	no change	-0.2	-0.64
25	DFFB (DNA fragmentation factor subunit beta)	SID152156608	no change	no change	0.68	-0.32
26	AADACL2 (arylacetamide deacetylase like 2)	SID152153427	no change	no change	-0.09	-1.12
27	CD300LD-AS1 (CD300LD antisense RNA 1)	SID134320411	no change	no change	0.26	0.18
28	RAB27B (RAB27B, member RAS oncogene family)	SID134310328	no change	no change	0.72	0.59
29	RGR (retinal G protein coupled receptor)	SID135621060	no change	no change	0.22	0.24
30	SLC30A1	SID152148042	no change	no change	1.69	-0.19
31	S1PR5 (sphingosine-1-phosphate receptor 5)	SID134310636	no change	no change	-0.36	-0.6
32	NARS1 (asparaginyl-tRNA synthetase 1)	SID152147788	no change	no change	-1.36	-0.26
33	SBSPON (somatomedin B and thrombospondin type 1 domain containing)	SID135623157	no change	no change	-0.66	2.04
34	ALMS1 (ALMS1 centrosome and basal body associated protein)	SID152150633	RV2 (reduced viability) (active)	no change	-3	-0.13
35	MTCL3 (MTCL family member 3)	SID135625270	no change	no change	-0.36	-0.53
36	MARS2 (methionyl-tRNA synthetase 2, mitochondrial)	SID135622966	no change	no change	1.05	-0.56
37	DHRS4L2 (dehydrogenase/reductase 4 like 2)	SID152149329	no change	no change	-0.52	-0.56
38	LRPPRC (leucine rich pentatricopeptide repeat containing)	SID134322614	no change	no change	0.48	2.54
39	OR8H2 (olfactory receptor family 8 subfamily H member 2)	SID152153813	no change	no change	-1.62	0.05
40	DRC1 (dynein regulatory complex subunit 1)	SID134320546	no change	no change	0.44	-0.12
41	TEX47 (testis expressed 47)	SID134321033	no change	no change	-0.42	-0.38
42	TSPAN6 (tetraspanin 6)	SID152153139	no change	no change	1.69	-0.02
43	DEFB125 (defensin beta 125)	SID152150745	no change	no change	0.42	-0.75
44	COL28A1 (collagen type XXVIII alpha 1 chain)	SID135624514	no change	no change	1.86	0.74
45	CYB5A (cytochrome b5 type A)	SID152149166	no change	no change	-0.93	-0.38
46	SCRN2 (secernin 2)	SID152153403	no change	no change	0.66	0.18
47	TM4SF18 (transmembrane 4 L six family member 18)	SID135623165	no change	no change	0.16	-0.73
48	PRR36 (proline rich 36)	SID152147439	no change	no change	0.24	-0.27
49	ACTR10 (actin related protein 10)	SID152152996	no change	no change	-0.68	-0.44
50	A1BG (alpha-1-B glycoprotein)	SID152150373	no change	no change	-0.03	3.54
51	MED10 (mediator complex subunit 10)	SID152147203	no change	no change	-1.47	-0.52
52	APP (amyloid beta precursor protein)	SID134310060	no change	no change	-0.2	0.76
53	SMR3A (submaxillary gland androgen regulated protein 3A)	SID152150210	no change	no change	-2.55	3.12
54	RTL10 (retrotransposon Gag like 10)	SID152151267	no change	no change	-3.96	2.48
55	SPICE1 (spindle and centriole associated protein 1)	SID134321024	no change	no change	-0.56	3.89
56	CCDC125 (coiled-coil domain containing 125)	SID152149218	no change	no change	-0.12	-0.42
57	C19orf48P (chromosome 19 open reading frame 48, pseudogene)	SID134319044	no change	no change	-0.09	1.24

Only “viability hit class”, for 4 of the entries above:
PCDHA6 (protocadherin alpha 6) [SID135622488] = no change
SERPINB3 (serpin family B member 3) [SID152153851] = no change
SNAP23 (synaptosome associated protein 23) [SID152154302] = no change
TEX28 (testis expressed 28) [SID134323917] = no change
